# Laboratory results from article PMC12318824.
# The chains behind the UniProt entries cited, without tags or fusion partners. Residues count along the entry.
# UniProt P04233: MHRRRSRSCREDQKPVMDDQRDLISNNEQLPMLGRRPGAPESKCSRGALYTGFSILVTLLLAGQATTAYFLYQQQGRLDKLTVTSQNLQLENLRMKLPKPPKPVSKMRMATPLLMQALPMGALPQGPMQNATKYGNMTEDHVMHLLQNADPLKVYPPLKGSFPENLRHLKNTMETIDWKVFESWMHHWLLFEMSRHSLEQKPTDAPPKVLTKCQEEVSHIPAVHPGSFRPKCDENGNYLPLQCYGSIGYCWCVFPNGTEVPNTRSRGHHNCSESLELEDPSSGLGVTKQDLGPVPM
# UniProt P16070, residues 21-742: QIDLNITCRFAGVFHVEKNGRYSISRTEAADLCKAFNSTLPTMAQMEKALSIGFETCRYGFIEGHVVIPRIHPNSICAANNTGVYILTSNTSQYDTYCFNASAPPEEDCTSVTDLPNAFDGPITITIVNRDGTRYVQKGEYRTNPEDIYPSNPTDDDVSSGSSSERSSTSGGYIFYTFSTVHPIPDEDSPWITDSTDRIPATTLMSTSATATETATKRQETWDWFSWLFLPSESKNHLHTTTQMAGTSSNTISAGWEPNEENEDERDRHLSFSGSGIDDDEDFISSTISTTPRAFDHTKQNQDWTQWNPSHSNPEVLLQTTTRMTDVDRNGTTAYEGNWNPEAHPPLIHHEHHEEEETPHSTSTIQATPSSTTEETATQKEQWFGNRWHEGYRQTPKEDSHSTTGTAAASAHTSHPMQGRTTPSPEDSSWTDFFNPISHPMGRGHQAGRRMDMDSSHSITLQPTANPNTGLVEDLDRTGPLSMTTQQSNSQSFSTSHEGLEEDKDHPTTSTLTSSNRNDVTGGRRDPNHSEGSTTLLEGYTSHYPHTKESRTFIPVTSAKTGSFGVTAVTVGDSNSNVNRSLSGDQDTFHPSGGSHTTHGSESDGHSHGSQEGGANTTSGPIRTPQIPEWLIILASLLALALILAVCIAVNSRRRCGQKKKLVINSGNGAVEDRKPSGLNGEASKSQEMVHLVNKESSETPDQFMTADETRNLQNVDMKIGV
# These are yes or no findings as the source states them, for the method shown. In cells and extracts the contact can be indirect. Some results given as binding are weak or reduced against the parent protein; the word gives no strength.
# Biological target: CD74 (human (endogenous in CD8+NKG7+ T cells)) (UniProt P04233)
# Assay: co-IP; co-immunoprecipitation of CD74 and CD44 in CD8+NKG7+ T cells; bait and conditions not told
substance,measurement,value
CD44 (from UniProt P16070 21-742),binding,binds
